Counter-ions that a name gives are not always drawn.
What was measured:
APPswe transgenic mice [1] = assay: Object recognition test, APPswe transgenic mice; format: in vivo; conditions: intragastric once a day 30 days, compositions 15.83 g raw medicinal materials/kg, donepezil 1.67 mg/kg, model control 0.105
APPswe transgenic mice [2] = assay: Morris water maze test, APPswe transgenic mice; format: in vivo; conditions: intragastric once a day 30 days, compositions 15.83 g raw medicinal materials/kg, donepezil 1.67 mg/kg

Question: `COc1cc2c(cc1OC)C(=O)C(CC1CCN(Cc3ccccc3)CC1)C2` (stereo not drawn) [Positive control, Donepezil Hydrochloride] was tested. Which Resolution index (APPswe transgenic mice [1]) did it give?
Answer: 0.176

Question: What about the “Escape latency” value (APPswe transgenic mice [2]; model control 86.14) of the same molecule?
Answer: 68.23 s

Question: And the “Distance (cm)” value (APPswe transgenic mice [2]; model control 982.81)?
Answer: 783.50 cm

Reference: US11278584B2, “Pharmaceutical composition for preventing and treating senile dementia and preparation method thereof” (priority 2014, dated 2022)
